Among the data in PMC7819943, “Rice protein-binding microarrays: a tool to detect cis-acting elements near promoter regions in rice” are binding signal values, retold here.

The other results are listed elsewhere or left out.

This experiment concerns the target T1, OsSMF1 (Oryza sativa, UniProt Q6ZLB0 1-436).
T1 sequence: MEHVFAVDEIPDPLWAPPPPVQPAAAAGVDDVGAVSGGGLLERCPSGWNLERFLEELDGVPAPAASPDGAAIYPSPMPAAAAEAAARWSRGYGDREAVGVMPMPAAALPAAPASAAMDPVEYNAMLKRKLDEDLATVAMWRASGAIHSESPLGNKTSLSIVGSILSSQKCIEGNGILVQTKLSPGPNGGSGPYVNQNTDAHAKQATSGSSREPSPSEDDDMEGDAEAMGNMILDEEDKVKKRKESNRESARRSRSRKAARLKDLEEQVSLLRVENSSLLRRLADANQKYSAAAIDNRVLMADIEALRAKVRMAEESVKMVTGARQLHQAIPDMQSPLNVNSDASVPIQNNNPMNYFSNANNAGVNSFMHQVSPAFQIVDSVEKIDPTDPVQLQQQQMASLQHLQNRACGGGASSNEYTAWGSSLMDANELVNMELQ
The experiment is described as follows: protein-binding microarray (RPBM); PBS, 2% BSA, 51.3 ng/ul salmon testes DNA, 50 uM zinc acetate, 200 nM TF, 25 C, 1 h; high values mean tight binding. The following applies: protein: recombinant; tags: N-terminal polyhistidine and DsRed monomer fusion (pET32a); chain copies: 2; label: CyDye5-dUTP incorporated in the synthesized complementary strand; 3' TTTTT single-stranded linker to array surface; dsDNA, one strand shown. Summed up: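 Binding signal is reported as fluorescence intensity per feature (arbitrary units) from an Axon 4000B scanner. Incubation used 200 nM of each Ni–NTA-purified, N-terminally polyhistidine- and DsRed-fused transcription factor from E. coli BL21-CodonPlus on a double-stranded custom Agilent array for 1 h at 25 °C, with 50 µM zinc acetate in the buffer, followed by washing.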
For the sequence “TCCTCTCGCCGCCGCCGCGTCCGCTCCACCCGGCGGCGGACGGAGTCACCTAGTGCAG”, the binding signal is 3450 fluorescence intensity (a.u.).
As to “GCGCAAGTGCACGTACGAAAATGACAGCGAGTGAGGTGGCCGGAGTCACCTAGTGCAG”, the binding signal is 3790 fluorescence intensity (a.u.).
To “AGACTGACAGGTGGGCCATGCGCCACGCACGTGCCACTGACGGAGTCACCTAGTGCAG” belongs 3960 fluorescence intensity (a.u.); to “TCCCAATATGACGTCGGAATGGTGCTGTCTATGTCTACTCCGGAGTCACCTAGTGCAG”, 5450 fluorescence intensity (a.u.); to “ATATGCTCATAGGGGTAGGGTTTGCGTGCGTGTGTTTATACGGAGTCACCTAGTGCAG”, 3470 fluorescence intensity (a.u.).
The value for “CCCAGCCTCCATCACCCAGTCCACCTCCCCACCTCCGCCGCGGAGTCACCTAGTGCAG” was 3940 fluorescence intensity (a.u.); that for “TCCACATGCATATATGCATGACACAGCAAAATATATGTTACGGAGTCACCTAGTGCAG” was 4980 fluorescence intensity (a.u.); that for “TATGTAATTATTGCTAGTGGATGATGATGTGGCATGGTTGCGGAGTCACCTAGTGCAG” was 16600 fluorescence intensity (a.u.).
The value for “GCGGGGCTTCGCGACGCTGAAGTGGATAGTGATACTGCTCCGGAGTCACCTAGTGCAG” was 3140 fluorescence intensity (a.u.); that for “TATAGAGCACACTAACGTTATTGTTTTCACGTTGTTTCGACGGAGTCACCTAGTGCAG” was 14300 fluorescence intensity (a.u.); that for “CCCTCATGAGGGCGTTGTCGTGCTGTCTCACCCCTCAAGGCGGAGTCACCTAGTGCAG” was 3660 fluorescence intensity (a.u.).
For the sequence “TGCAGCCCAACTCGTCGTCCACCTCACACTCGCCGCAGCCCGGAGTCACCTAGTGCAG”, the binding signal was 5450 fluorescence intensity (a.u.).
The value for “GATGCGCCACTGGTTGACCTGTTCTTTGTCGAACATGTTGCGGAGTCACCTAGTGCAG” was 3920 fluorescence intensity (a.u.); that for “ATGGGACTTATCTCGGTGAGGATGTTGCTGTTAAAATTCTCGGAGTCACCTAGTGCAG” was 3610 fluorescence intensity (a.u.); that for “GGCATCTGCGGCGCGCGCGCGTCATCCTCATCCCCAGCTACGGAGTCACCTAGTGCAG” was 4130 fluorescence intensity (a.u.).
The value for “GGCCTCGTCGCCGAGACAGCCAACTACGCCGCGGTGGCAGCGGAGTCACCTAGTGCAG” was 4320 fluorescence intensity (a.u.); that for “CCTCGAGATTTGCGTCAGAACACAAGAGCGACGACCCCACCGGAGTCACCTAGTGCAG” was 3660 fluorescence intensity (a.u.); that for “CTCGGGGTTAAGCAGAGGTTATCGTCCCCGCCGCAGGTTACGGAGTCACCTAGTGCAG” was 4020 fluorescence intensity (a.u.).
The value for “CTCTGGCGCGCTCGCGCCGGTCCATGTCACGTCAAGCAAACGGAGTCACCTAGTGCAG” was 4310 fluorescence intensity (a.u.); that for “ACTCGTCGGTAGTAATCAGTCAGCTCATCAGCATCTGATCCGGAGTCACCTAGTGCAG” was 3280 fluorescence intensity (a.u.).
Turning to “TCGTGCTACAGATCTATAGCACACTACTCTTCTCTCTCTTCGGAGTCACCTAGTGCAG”, the binding signal was 3370 fluorescence intensity (a.u.).
To “AATCGCCGTACCAACGCCCACCTCGTTGGGTACCGTCATACGGAGTCACCTAGTGCAG” belongs 3260 fluorescence intensity (a.u.); to “ATCCTTTTCACAAATTACAACTAGTCCCAGCCTCCCAGTTCGGAGTCACCTAGTGCAG”, 27500 fluorescence intensity (a.u.); to “TCACGCTAACTCTGACGTCGATCTCCTGTGAAGTCGTGGCCGGAGTCACCTAGTGCAG”, 8220 fluorescence intensity (a.u.).
To “CACATTGAGTCAGCTGCCACGTCGGATAAAACCGGAGTCACGGAGTCACCTAGTGCAG” belongs 15000 fluorescence intensity (a.u.); to “AGCCAGTAAGAGATCAACGGCTCTCAGTGAAGCAACGTCTCGGAGTCACCTAGTGCAG”, 20500 fluorescence intensity (a.u.).
The value for “AGGGAATTACAACAAACAGTCCAGTCATTTCACCCACCGCCGGAGTCACCTAGTGCAG” was 5650 fluorescence intensity (a.u.); that for “AACATTGAATTGGATCGTTGACTTGGACGAGTCATCGCCGCGGAGTCACCTAGTGCAG” was 4700 fluorescence intensity (a.u.); that for “GCGTGCCACATCAGCACCACGTAGGATCCTAGAGGGGCTACGGAGTCACCTAGTGCAG” was 25300 fluorescence intensity (a.u.).
“CTCCGTCCACTGGACAGGGCAGAGGCTGCCTACCAGACACCGGAGTCACCTAGTGCAG”: the binding signal is 4640 fluorescence intensity (a.u.).
To “CCCCTTTAAATTCACCCATGCACACGTCGTCGCAAATCACCGGAGTCACCTAGTGCAG” belongs 3410 fluorescence intensity (a.u.); to “CCTCCTCGCGTCAGGAGGCGCAACTGCGCGTGCAAACAAACGGAGTCACCTAGTGCAG”, 14000 fluorescence intensity (a.u.); to “CAACAGCAAGAGGAGCTTCTCTTCCAAATGCCAGGACATGCGGAGTCACCTAGTGCAG”, 3270 fluorescence intensity (a.u.).
The value for “CCGTTCGCCATTCGTTTCCACGCATCCCTTCCACTGACTCCGGAGTCACCTAGTGCAG” was 3840 fluorescence intensity (a.u.); that for “GATTTCTGATCTGTGCCGCGTGGACGCCATCCTCTCCAGGCGGAGTCACCTAGTGCAG” was 35300 fluorescence intensity (a.u.).
To “AAGACGACGACGACGGTGTCTGCTGCGTCGGCTGCTCCGGCGGAGTCACCTAGTGCAG” belongs 18400 fluorescence intensity (a.u.).
In the case of “AAAGAGCGCACGCCCCACTCGACACGTTGCCCCACCTCAACGGAGTCACCTAGTGCAG”, the binding signal is 5280 fluorescence intensity (a.u.).
To “ACAGCATCCAATTCAAACGGATCAAGACTTAAATAATCCCCGGAGTCACCTAGTGCAG” belongs 3280 fluorescence intensity (a.u.).
Regarding “ATCCATCCACCCAACCAGCCACGCCTTGCAAACGGCCAAACGGAGTCACCTAGTGCAG”, the binding signal is 3360 fluorescence intensity (a.u.).
The value for “AAGCAGGCTAGATCCCATCTCATGCGTATGCATGATGCCACGGAGTCACCTAGTGCAG” was 3180 fluorescence intensity (a.u.).
To “GCACCAGCCAGTCAGCCCACCATTTCAAACGCCACACTCACGGAGTCACCTAGTGCAG” belongs 60800 fluorescence intensity (a.u.).
As to “TAGGGATAATGTGCCTTCGTGTTAAGTAGCCAGGCACGTACGGAGTCACCTAGTGCAG”, the binding signal was 3220 fluorescence intensity (a.u.).
To “AGATTCGTTGTATTAAAATGTGTCACATTCAATCTATTAGCGGAGTCACCTAGTGCAG” belongs 3920 fluorescence intensity (a.u.).
The value for “AGCCCGCTCTCACGTGGTCAGCACGTGTGCCACCTCAGCACGGAGTCACCTAGTGCAG” was 10000 fluorescence intensity (a.u.); that for “TCCTGCGCTATTAATGCCACCATCACACTCTGACACTCATCGGAGTCACCTAGTGCAG” was 3280 fluorescence intensity (a.u.); that for “GGGACAATATTGGGTACGTGGAGCACGTACCTCCATCCTACGGAGTCACCTAGTGCAG” was 3890 fluorescence intensity (a.u.).
The value for “TTCGTTTTAAAACTATAAGATGGAACTTAATTTGAAAACACGGAGTCACCTAGTGCAG” was 10300 fluorescence intensity (a.u.).
In the case of “CAAAGGCGGCAGCTCGTGCGTGTCACGCGAGGGCATCACACGGAGTCACCTAGTGCAG”, the binding signal is 3150 fluorescence intensity (a.u.).
The value for “GGGGACGCCCCTCGTCACTCATCATTTAATGAACAAGGACCGGAGTCACCTAGTGCAG” was 3520 fluorescence intensity (a.u.); that for “TGCGGCAGGCTCATGACATGGCTGATGTCGAGCCTGTCAACGGAGTCACCTAGTGCAG” was 3170 fluorescence intensity (a.u.).
To “TCGTCGCATCGGATCACAATGGTTAATCTAATTCCTGCAACGGAGTCACCTAGTGCAG” belongs 17500 fluorescence intensity (a.u.); to “ACGCGGCACCAACCGCGCGCCCACGCGAGCGCTCGCGCCGCGGAGTCACCTAGTGCAG”, 20300 fluorescence intensity (a.u.).
The value for “ACGCGCCGGCTCATGCATCTCTCCGGCGCGCGGCTGAGGACGGAGTCACCTAGTGCAG” was 4350 fluorescence intensity (a.u.); that for “CCACTCCTCTTTCACACGTATATCAGCCCGAGCCACCCGTCGGAGTCACCTAGTGCAG” was 3930 fluorescence intensity (a.u.).
